These are yes or no findings as the source states them, for the method shown. In cells and extracts the contact can be indirect. Some binding calls cover weakened binding; strength is not graded here. Sequences can lack the tags named with a protein.
Target: T1, TLR7-HA (murine Tlr7 fused at the 3' end to the influenza hemagglutinin tag) (mouse) (UniProt P58681)
T1 sequence: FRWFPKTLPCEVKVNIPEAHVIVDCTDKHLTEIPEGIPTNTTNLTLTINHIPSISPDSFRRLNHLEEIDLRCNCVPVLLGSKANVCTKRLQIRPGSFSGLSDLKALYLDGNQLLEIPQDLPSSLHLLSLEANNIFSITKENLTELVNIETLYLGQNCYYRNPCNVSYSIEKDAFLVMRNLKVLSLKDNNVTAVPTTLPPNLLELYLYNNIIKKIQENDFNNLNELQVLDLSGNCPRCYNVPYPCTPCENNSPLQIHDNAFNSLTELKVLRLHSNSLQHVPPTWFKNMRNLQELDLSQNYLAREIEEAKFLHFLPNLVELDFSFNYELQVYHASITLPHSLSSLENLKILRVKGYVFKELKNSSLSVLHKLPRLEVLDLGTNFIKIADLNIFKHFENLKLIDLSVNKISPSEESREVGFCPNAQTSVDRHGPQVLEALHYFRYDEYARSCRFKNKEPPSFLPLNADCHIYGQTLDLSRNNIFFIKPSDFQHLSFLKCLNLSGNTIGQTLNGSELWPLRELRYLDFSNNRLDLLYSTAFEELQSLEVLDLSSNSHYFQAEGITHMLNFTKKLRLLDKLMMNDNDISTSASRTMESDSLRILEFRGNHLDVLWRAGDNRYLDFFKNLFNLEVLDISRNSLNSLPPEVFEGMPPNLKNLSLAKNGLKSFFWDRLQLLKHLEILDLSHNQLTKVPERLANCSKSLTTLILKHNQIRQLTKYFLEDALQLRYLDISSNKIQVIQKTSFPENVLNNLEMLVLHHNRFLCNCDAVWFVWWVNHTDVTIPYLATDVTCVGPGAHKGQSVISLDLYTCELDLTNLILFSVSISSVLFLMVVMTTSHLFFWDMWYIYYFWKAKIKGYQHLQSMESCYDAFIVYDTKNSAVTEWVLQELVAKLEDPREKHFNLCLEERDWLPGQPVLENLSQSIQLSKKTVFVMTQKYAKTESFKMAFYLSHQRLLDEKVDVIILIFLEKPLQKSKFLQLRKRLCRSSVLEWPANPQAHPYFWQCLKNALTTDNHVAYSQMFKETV
Test: co-IP

Protein sequences, listed by entry. Tags and fused reporters are not part of them. Residues count along the entry.
UniProt Q99MB1, residues 26-905: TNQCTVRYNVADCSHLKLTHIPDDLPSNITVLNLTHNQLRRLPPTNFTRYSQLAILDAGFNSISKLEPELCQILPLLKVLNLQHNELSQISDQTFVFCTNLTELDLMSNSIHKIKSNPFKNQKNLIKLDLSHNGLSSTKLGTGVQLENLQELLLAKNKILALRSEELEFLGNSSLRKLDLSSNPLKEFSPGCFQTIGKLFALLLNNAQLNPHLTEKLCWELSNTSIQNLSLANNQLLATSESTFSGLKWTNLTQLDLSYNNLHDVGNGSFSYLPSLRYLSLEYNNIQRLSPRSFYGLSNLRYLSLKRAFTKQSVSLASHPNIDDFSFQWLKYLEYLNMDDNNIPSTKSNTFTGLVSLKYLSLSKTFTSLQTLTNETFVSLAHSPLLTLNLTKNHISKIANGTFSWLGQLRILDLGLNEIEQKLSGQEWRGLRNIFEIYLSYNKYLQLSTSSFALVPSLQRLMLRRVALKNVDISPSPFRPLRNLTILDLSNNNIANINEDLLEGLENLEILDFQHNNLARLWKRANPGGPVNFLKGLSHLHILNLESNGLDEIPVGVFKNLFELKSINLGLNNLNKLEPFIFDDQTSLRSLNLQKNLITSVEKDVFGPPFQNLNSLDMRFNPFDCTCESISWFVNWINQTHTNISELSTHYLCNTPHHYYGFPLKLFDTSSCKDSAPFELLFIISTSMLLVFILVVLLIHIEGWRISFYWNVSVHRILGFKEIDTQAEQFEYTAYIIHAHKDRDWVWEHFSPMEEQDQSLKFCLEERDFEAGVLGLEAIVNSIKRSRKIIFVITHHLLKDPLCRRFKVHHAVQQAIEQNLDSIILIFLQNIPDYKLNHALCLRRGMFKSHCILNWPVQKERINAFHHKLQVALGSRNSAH

Substance: TLR3-Myc (murine Tlr3 fused at the 3' end to the Myc tag) (from UniProt Q99MB1 26-905) (receptor)
- binding: binds
